The target in experiment [1] is T1, Hydroxy-3-methylglutaryl coenzyme A reductase (HMGCR) (human (endogenous in A549/DDP)) (UniProt P04035).
T1 sequence: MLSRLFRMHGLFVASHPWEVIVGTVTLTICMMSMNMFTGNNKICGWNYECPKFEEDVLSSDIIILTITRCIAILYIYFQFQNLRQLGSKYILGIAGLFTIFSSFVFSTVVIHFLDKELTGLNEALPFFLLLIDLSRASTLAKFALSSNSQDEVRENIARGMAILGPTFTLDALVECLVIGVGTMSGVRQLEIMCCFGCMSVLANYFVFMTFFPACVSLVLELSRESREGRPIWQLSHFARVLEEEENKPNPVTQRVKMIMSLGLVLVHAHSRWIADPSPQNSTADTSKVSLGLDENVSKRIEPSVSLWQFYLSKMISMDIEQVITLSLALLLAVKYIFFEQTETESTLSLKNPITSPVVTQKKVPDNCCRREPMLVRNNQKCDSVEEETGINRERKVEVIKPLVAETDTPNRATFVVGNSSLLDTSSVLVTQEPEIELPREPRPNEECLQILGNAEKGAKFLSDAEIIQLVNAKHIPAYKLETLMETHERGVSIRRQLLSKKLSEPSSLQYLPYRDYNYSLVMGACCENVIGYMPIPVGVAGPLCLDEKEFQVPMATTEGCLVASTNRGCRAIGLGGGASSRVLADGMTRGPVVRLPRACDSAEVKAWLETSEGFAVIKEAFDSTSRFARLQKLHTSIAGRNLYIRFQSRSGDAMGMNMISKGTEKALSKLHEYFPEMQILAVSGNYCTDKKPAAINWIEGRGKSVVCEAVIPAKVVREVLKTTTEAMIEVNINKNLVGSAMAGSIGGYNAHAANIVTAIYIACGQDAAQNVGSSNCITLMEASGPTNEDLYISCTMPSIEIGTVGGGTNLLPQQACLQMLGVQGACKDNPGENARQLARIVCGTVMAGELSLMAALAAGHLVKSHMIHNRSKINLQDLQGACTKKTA
Kind of experiment: co-IP; Flag-SIAH1 transfected into A549/DDP cells; RIPA lysates; IP of Flag-SIAH1 or of HMGCR (normal IgG as control) with protein A/G PLUS-Agarose beads, 4 h at 4 °C; Western blot against HMGCR and SIAH1.

The target of another experiment is T2, Flag-SIAH1 (UniProt Q8IUQ4).
T2 sequence: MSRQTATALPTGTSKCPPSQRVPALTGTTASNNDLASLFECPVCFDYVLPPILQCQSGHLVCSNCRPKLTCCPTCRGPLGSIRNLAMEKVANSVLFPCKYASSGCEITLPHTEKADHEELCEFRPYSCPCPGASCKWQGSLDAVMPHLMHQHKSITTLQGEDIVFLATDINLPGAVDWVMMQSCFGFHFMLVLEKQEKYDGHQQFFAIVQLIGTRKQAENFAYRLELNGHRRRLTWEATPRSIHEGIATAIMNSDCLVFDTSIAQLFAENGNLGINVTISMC
The experiment is described as above.

These are yes or no findings as the source states them, for the method shown. In cells and extracts the contact can be indirect. Some binding calls cover weakened binding; strength is not graded here. Tags and fused reporters may be left off the sequences shown.

B1: Flag-SIAH1 (enzyme, UniProt Q8IUQ4 1-282)
chain: T2 sequence
On to B1, for which the binding result in experiment [1] is on record as “binds”.

B2: Hydroxy-3-methylglutaryl coenzyme A reductase (HMGCR) (enzyme, UniProt P04035 1-888)
chain: T1 sequence
Consider B2, for which the binding entry in the experiment with Flag-SIAH1 is “binds”.

(Values after PMC10105949.)
